# The campaign covered roughly 400,000 compounds. About 3,700 (0.93%) were called active. This list was built around the results that the source calls inconclusive (neither active nor inactive); the mix of calls is not that of the screen. Calls come from the whole dose curve; as a rule, active = well fitted inhibition curve with a large enough effect; inconclusive = small, poorly fitted or top-dose-only effect, or another doubt; inactive = no such curve, though single readings can be large or run the other way. A potency beside an inconclusive call is a rough fit, not a confirmed value.
# Sequences of proteins named here, by UniProt entry; tags and fusion partners are left off. A change or cut given only in a name is not applied to a line headed by its entry.
# UniProt P11473: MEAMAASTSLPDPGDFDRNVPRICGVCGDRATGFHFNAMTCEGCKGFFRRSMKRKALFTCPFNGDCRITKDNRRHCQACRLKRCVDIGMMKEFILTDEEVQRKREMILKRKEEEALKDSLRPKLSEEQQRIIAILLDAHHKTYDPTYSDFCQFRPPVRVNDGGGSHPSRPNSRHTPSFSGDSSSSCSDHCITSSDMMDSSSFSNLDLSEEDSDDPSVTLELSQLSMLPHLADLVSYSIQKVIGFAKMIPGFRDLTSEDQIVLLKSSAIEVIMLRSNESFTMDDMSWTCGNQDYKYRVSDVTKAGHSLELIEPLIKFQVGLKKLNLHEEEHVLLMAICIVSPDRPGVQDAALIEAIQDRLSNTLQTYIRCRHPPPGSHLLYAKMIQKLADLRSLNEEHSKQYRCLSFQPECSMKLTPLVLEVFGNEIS
# Biological target: Vitamin D3 receptor (Homo sapiens) (UniProt P11473)
# Assay: Inhibitors of the vitamin D receptor (VDR): qHTS
# Details: VDR-SRC2-3 peptide fluorescence polarization, 2 h; max response, negative = inhibition: active compounds read low
# Summary of the method: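 VDR–SRC2-3 interaction, FP format. Cmpds 23 nl via pintool, brief spin, 2 h ambient incubation.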
# % is set by controls: 0 for no effect and ±100 for the full control effect; potency is the fitted concentration of half-maximal effect.
Structure (SMILES),"max response, negative = inhibition",Potency
O=C(O)CCCCCNC(=O)c1ccccc1,inactive: 6.52%,–
COc1cc(CCC(=O)Nc2cnc3ccccc3c2)cc(OC)c1OC,inactive: 7.34%,–
Cc1nc(-c2ccc(F)cc2)c(CC(=O)N2CCN(S(=O)(=O)c3cccc(Cl)c3)CC2)s1,–,"inconclusive: 89.1 µM [inhibitor, partial curve, poor fit]"
Cc1sc2nc(CN3CCCC3)nc(Cl)c2c1C,–,"inconclusive: 89.1 µM [inhibitor, single point]"
CCOc1ccc(NCc2cccn2-c2nnc(N3CCC(C(=O)NCCCN4CC(C)CC(C)C4)CC3)s2)cc1 (configuration not stated),inactive: -4.23%,–
O=C1c2ccccc2CN1Cc1ccccc1,inactive: -1.59%,–
CC1CCCC(NC(=O)CCS(=O)(=O)c2ccc3c(c2)NC(=O)CS3)C1C (configuration not stated),–,"inconclusive: 39.8 µM [inhibitor, single point]"
COc1ccc(CCc2nnc(CCC(=O)NCc3cnn(-c4ccccc4C)c3)o2)cc1,–,"inconclusive: 50.1 µM [inhibitor, partial curve, poor fit]"
Cc1ccc(C2C3CSCC=C3C(C#N)=C(N)C2(C#N)C#N)cc1 (configuration not stated),–,"inconclusive: 5.01 µM [inhibitor, full curve]"
Cc1ccc(SCC(=O)NC2CC2)cc1,–,"inconclusive: 89.1 µM [inhibitor, single point]"
Cc1ccc(N2C(=O)C(Cl)=C(N3CCOCC3)C2=O)cc1Cl,–,"inconclusive: 56.2 µM [inhibitor, partial curve, poor fit]"
COc1ccc(S(=O)(=O)Nc2cccnc2)cc1,inactive: -22.9%,–
O=C(c1ccc(NS(=O)(=O)c2ccc(F)cc2)cc1)N1CCCCCC1,inactive: -8.85%,–
O=C(c1cc(C2CC2)nn1-c1ccccc1)N1CCN(Cc2c(F)cccc2Cl)CC1,–,"inconclusive: 63.1 µM [inhibitor, partial curve, poor fit]"
O=C(Nc1nc2ccsc2c(=O)s1)c1ccc(Cl)cc1,–,"inconclusive: 50.1 µM [inhibitor, partial curve, poor fit]"
Cc1cc(=O)[nH]c(SCC(=O)C23CC4CC(CC(C4)C2)C3)c1C#N,–,"inconclusive: 89.1 µM [inhibitor, partial curve, poor fit]"
O=S(=O)(c1ccccc1)c1nc(NCc2ccccc2)sc1Cl,inactive: 2.49%,–
O=C(N/N=C/C=C/c1ccco1)c1ccccc1Cl,–,"inconclusive: 89.1 µM [inhibitor, single point]"
N#CC1=C(S)N(c2ccc(F)cc2)C(c2cccs2)NC1=O (configuration not stated),–,"inconclusive: 25.1 µM [inhibitor, partial curve, poor fit]"
O=C1N=C2SCCN2/C1=C\c1ccc(Cl)cc1,–,"inconclusive: 79.4 µM [inhibitor, single point]"
c1ccc2c(Nc3ccncc3)nc(-c3ccoc3)nc2c1,–,"inconclusive: 31.6 µM [inhibitor, partial curve]"

# Part of the list above in order of molar mass, low to high.
Structure (SMILES),"max response, negative = inhibition",Potency
O=C(O)CCCCCNC(=O)c1ccccc1,inactive: 6.52%,–
Cc1cc(=O)[nH]c(SCC(=O)C23CC4CC(CC(C4)C2)C3)c1C#N,–,"inconclusive: 89.1 µM [inhibitor, partial curve, poor fit]"
Cc1nc(-c2ccc(F)cc2)c(CC(=O)N2CCN(S(=O)(=O)c3cccc(Cl)c3)CC2)s1,–,"inconclusive: 89.1 µM [inhibitor, partial curve, poor fit]"

# More results:

Structure (SMILES),"max response, negative = inhibition",Potency
CC(=O)N(C(C)=O)c1ncc2c([nH]c3ccccc32)c1C#N,–,"inconclusive: 89.1 µM [inhibitor, single point]"
O=C(CNc1cccc2ccccc12)N/N=C/c1ccc(OC(=O)/C=C/c2ccco2)cc1,–,"inconclusive: 89.1 µM [inhibitor, partial curve, poor fit]"
O=C(O)Cn1c(C(=O)Nc2nc(-c3ccccc3Cl)cs2)cc2ccccc21,–,active: 56.2 µM
CCCCC[C@@H](/C=C/C1C(=O)C=C[C@H]1C/C=C\CCCC(=O)OC)OC(C)=O (some centres not stated),–,active: 10 µM
Cc1nn(-c2cccc(C(F)(F)F)c2)c(Cl)c1/C=N/Nc1cccc(C(=O)O)c1,–,"inconclusive: 100 µM [inhibitor, partial curve, poor fit]"
COc1ccc(/C=N/N(Cc2ccccc2)c2ccccc2)cc1O,–,"inconclusive: 44.7 µM [inhibitor, partial curve, poor fit]"
CCOC(=O)C1=NN(c2ccccc2)C2=NC(C)=C(C(=O)OC)C(c3cccs3)N12 (configuration not stated),–,"inconclusive: 79.4 µM [inhibitor, partial curve, poor fit]"
CC(=O)c1ccc(Nc2c3c(nc4ccccc24)CCCC3)cc1,inactive: 13.9%,–
CN1C/C(=C/c2ccc(B(O)O)cc2)C(=O)/C(=C/c2ccc(B(O)O)cc2)C1,–,active: 4.47 µM
O=C(CSc1nccn1-c1ncc(C(F)(F)F)cc1Cl)c1ccc(Cl)cc1,–,active: 44.7 µM
COc1cccc(CN2CC(C(=O)NCCc3ccc(C)o3)CCC2=O)c1 (configuration not stated),–,"inconclusive: 79.4 µM [inhibitor, partial curve, poor fit]"
Cc1[nH]n(C(N)=S)c(=O)c1N=Nc1cccc(Cl)c1,inactive: -5.13%,–
CC(C)N1C(=O)S/C(=C/c2ccccc2OCc2ccc(C(=O)O)cc2)C1=O,–,"inconclusive: 89.1 µM [inhibitor, single point]"
CCN1/C(=C/C=C/c2oc3ccc4ccccc4c3[n+]2CC)Oc2ccc3ccccc3c21,–,"inconclusive: 89.1 µM [inhibitor, single point]"
CSCC[C@H](NC(=O)c1ccc(NC[C@@H](N)CS)cc1-c1ccccc1)C(=O)O,–,active: 7.94 µM
Cc1ccc(NC(=O)Nc2c(C)n(C)n(-c3ccccc3)c2=O)cc1C,–,"inconclusive: 50.1 µM [inhibitor, partial curve, poor fit]"
Cn1c(SCC(=O)NC(c2ccccc2)c2ccccc2)nnc1-c1cccs1,–,"inconclusive: 50.1 µM [inhibitor, partial curve, poor fit]"
O=C(O)c1ccc(Cl)cc1Nc1nc2cc(Cl)ccc2o1,–,"inconclusive: 89.1 µM [inhibitor, partial curve, poor fit]"
COc1ccc(/C=N/N2C(=O)CN(C(=O)c3ccccc3)C2c2ccc(OC)cc2)cc1 (configuration not stated),–,"inconclusive: 100 µM [inhibitor, partial curve, poor fit]"
O=c1[nH]c(=O)c2[nH]c(=O)n(-c3ccccc3)c2[nH]1,–,"inconclusive: 28.2 µM [inhibitor, single point]"
O=C(CCc1nnc(Cc2ccc3c(c2)OCO3)o1)NCCc1ccccc1Cl,–,"inconclusive: 25.1 µM [inhibitor, partial curve, poor fit]"

# Source: PubChem BioAssay AID504847 (National Center for Advancing Translational Sciences (NCATS), 2011)
